# Results from publication PMC9018702.
# Construct, isoform or probe ends are uncertain for at least one entry. For part of these data: Negatives hold for the conditions tested.
# How the values were obtained:
# Assay in all cases: EMSA
# MBP-OsMS1 = MBP-OsMS1 alone; EMSA: 10 mM Tris-HCl pH 7.5, 50 mM KCl, 5 mM MgCl2, 1 mM DTT, 2.5% glycerol, 0.05% NP-40, 50 ng/uL poly(dI-dC), 10 fmol probe, 1 ug protein in 20 uL; recombinant protein; protein details: MBP (N-terminal, pMAL-c2); label: biotin
# [1] = system: MBP-TDR + MBP-OsMS1wenmin1; settings: increasing MBP-OsMS1wenmin1 enhances TDR binding, a bit weaker than OsMS1; EMSA: 10 mM Tris-HCl pH 7.5, 50 mM KCl, 5 mM MgCl2, 1 mM DTT, 2.5% glycerol, 0.05% NP-40, 50 ng/uL poly(dI-dC), 10 fmol probe, 1 ug protein in 20 uL; recombinant protein; label: biotin
# MBP-TDR + MBP-OsMS1 = settings: increasing MBP-OsMS1 enhances TDR binding; EMSA: 10 mM Tris-HCl pH 7.5, 50 mM KCl, 5 mM MgCl2, 1 mM DTT, 2.5% glycerol, 0.05% NP-40, 50 ng/uL poly(dI-dC), 10 fmol probe, 1 ug protein in 20 uL; recombinant protein; label: biotin
sequence,measurement,setting,value
GCGTATCGTGGTCATCTGTCTATTTTACATGCACTTGTAGCTGGATAAA (double strand) [EAT1 promoter P1 probe],binding result,MBP-OsMS1,no binding
same,binding result,[1],binds
same,binding result,MBP-TDR + MBP-OsMS1,binds
